Measurements from PMC6389962 (Nature Communications, 2019).
HELM strings list residues between dots; [ac] is acetyl, [am] amide, other brackets name non-standard units.

Assay: general procedure: Fmoc solid-phase peptide synthesis; Sieber resin; PyBOP/DIEA
Settings: whole synthesis, scale 0.1 mmol

## PEPTIDE1{H.G.E.G.T.F.T.S.D.V.S.S.Y.L.E.G.Q.A.A.K.E.F.I.A.W.L.V.K.G.R.G.[am]}$$$$V2.0
  isolated mass: 6.1 mg
  isolated yield: 1.8%
